Source: PubChem BioAssay AID1508588 (Peter MacCallum Cancer Centre, 2020)

Test: 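Knock-downs boosting vemurafenib effects on melanoma cell growth or lactate release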 (primary screen)
Cells: human WM266.4 melanoma cells (BRAF V600 mutant)
Knock-down reagent: siRNA pool against human genes, 40 nM
Time to read-out: 96 h from transfection to read-out
Treatment: vemurafenib 300 nM (about IC25), added 48 h after transfection, for 48 h; comparison arm got DMSO vehicle only
Read-out: 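Cell gain (DAPI nuclei at end minus before drug, mean of two replicates) and medium lactate by absorbance per cell, both as ratio to non-targeting siRNA, also grouped into fold-change classes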
Reading the numbers: cell gain with vemurafenib: higher = more cell gain than with non-targeting siRNA; lactate per cell with vemurafenib: higher = more lactate made per cell
Active means: 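a knock-down counts as enhancing when its fold-change classes with vehicle and with vemurafenib, taken together, show a stronger drug effect on cell gain or lactate per cell; exact class pairs not stated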
Meaning of the calls: active = enhances vemurafenib effect; inactive = no enhancement seen
The whole screen tested about 18,000 reagents; below is an unselected part. In the full data, 790 (4.4%) were called active. 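Calls rest on a combination of fold-change classes in drug and vehicle arms, not all shown here.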 A number with no mark means an inactive call. No sequences are given here.

For DGCR2 (DiGeorge syndrome critical region gene 2), what was measured?
cell gain with vemurafenib: 0.64; lactate per cell with vemurafenib: 0.78

For TEX11 (testis expressed 11), how do the results read?
cell gain with vemurafenib: 0.6; lactate per cell with vemurafenib: 0.22

For CLP1 (cleavage factor polyribonucleotide kinase subunit 1), what was measured?
cell gain with vemurafenib: 0.21; lactate per cell with vemurafenib: 1.4

For KANK1 (KN motif and ankyrin repeat domains 1), how do the results read?
cell gain with vemurafenib: 0.69; lactate per cell with vemurafenib: 0.95

Which result is listed for LDLR (low density lipoprotein receptor)?
cell gain with vemurafenib: 0.25; lactate per cell with vemurafenib: 0.7

For USP19 (ubiquitin specific peptidase 19), what does the deposit list?
cell gain with vemurafenib: 0.76; lactate per cell with vemurafenib: 0.48

How did the screen score LGALS9B (galectin 9B)?
cell gain with vemurafenib: 0.3; lactate per cell with vemurafenib: 0.66

With CWC22 (CWC22 spliceosome associated protein), how do the results read?
cell gain with vemurafenib: 0.11; lactate per cell with vemurafenib: 0.29

What did the screen give for NFIC (nuclear factor I C)?
cell gain with vemurafenib: 0.87; lactate per cell with vemurafenib: 0.88

With UBE2L6 (ubiquitin conjugating enzyme E2 L6), what does the deposit list?
cell gain with vemurafenib: 0.78; lactate per cell with vemurafenib: 1.2

With TAS2R41 (taste 2 receptor member 41), what was measured?
cell gain with vemurafenib: 0.49; lactate per cell with vemurafenib: 1.47

With TSPY1 (testis specific protein Y-linked 1), what does the deposit list?
cell gain with vemurafenib: 0.6; lactate per cell with vemurafenib: 0.84

With ISY1 (ISY1 spliceosome associated protein), what does the deposit list?
cell gain with vemurafenib: 0.42; lactate per cell with vemurafenib: 1.15

With DMRTC2 (DMRT like family C2), what was measured?
cell gain with vemurafenib: 0.47; lactate per cell with vemurafenib: 1.1

With ABO, how do the results read?
cell gain with vemurafenib: 0.8; lactate per cell with vemurafenib: 0.86

What is on record for ABCC4 (ATP binding cassette subfamily C member 4 (PEL blood group))?
cell gain with vemurafenib: 0.54; lactate per cell with vemurafenib: 1.67

For TAGAP (T cell activation RhoGTPase activating protein), how do the results read?
cell gain with vemurafenib: -0.07; lactate per cell with vemurafenib: 0.2

What did the screen give for SYT11 (synaptotagmin 11)?
cell gain with vemurafenib: 0.3; lactate per cell with vemurafenib: 1.95

With CBY2 (chibby family member 2), what does the deposit list?
cell gain with vemurafenib: 0.94; lactate per cell with vemurafenib: 0.76

What did the screen give for LACTB2 (lactamase beta 2)?
cell gain with vemurafenib: 0.52; lactate per cell with vemurafenib: 1.12

How did the screen score LIMD2 (LIM domain containing 2)?
cell gain with vemurafenib: 0.8; lactate per cell with vemurafenib: 0.68

Which result is listed for INTS5 (integrator complex subunit 5)?
cell gain with vemurafenib: 0.16; lactate per cell with vemurafenib: 1.46

With SPINK4 (serine peptidase inhibitor Kazal type 4), what does the deposit list?
cell gain with vemurafenib: -0.09; lactate per cell with vemurafenib: 1.28

For MFSD6L (major facilitator superfamily domain containing 6 like), what does the deposit list?
cell gain with vemurafenib: 0.32; lactate per cell with vemurafenib: 0.64

How did the screen score SLC16A6?
cell gain with vemurafenib: 0.68; lactate per cell with vemurafenib: 0.32

How did the screen score RNF11 (ring finger protein 11)?
cell gain with vemurafenib: 0.13 (active); lactate per cell with vemurafenib: 0.44

How did the screen score GPATCH2L (G-patch domain containing 2 like)?
cell gain with vemurafenib: 0.26 (active); lactate per cell with vemurafenib: 0.59

Which result is listed for SOSTDC1 (sclerostin domain containing 1)?
cell gain with vemurafenib: 0.78; lactate per cell with vemurafenib: 2

What did the screen give for PSMB10 (proteasome 20S subunit beta 10)?
cell gain with vemurafenib: 0.48; lactate per cell with vemurafenib: 1.53

What is on record for DLGAP4 (DLG associated protein 4)?
cell gain with vemurafenib: 0.58; lactate per cell with vemurafenib: 0.9

How did the screen score TREML1 (triggering receptor expressed on myeloid cells like 1)?
cell gain with vemurafenib: 0.1; lactate per cell with vemurafenib: 1.89

What is on record for USP31 (ubiquitin specific peptidase 31)?
cell gain with vemurafenib: 0.62; lactate per cell with vemurafenib: 0.73

What is on record for RAB21 (RAB21, member RAS oncogene family)?
cell gain with vemurafenib: 0.61; lactate per cell with vemurafenib: 0.77

For SPATC1 (spermatogenesis and centriole associated 1), what was measured?
cell gain with vemurafenib: 0.31; lactate per cell with vemurafenib: 1.08

For ORAI3 (ORAI calcium release-activated calcium modulator 3), what was measured?
cell gain with vemurafenib: 0.92; lactate per cell with vemurafenib: 0.82

What is on record for TMEM50A (transmembrane protein 50A)?
cell gain with vemurafenib: 0.48; lactate per cell with vemurafenib: 0.56

With CDRT4 (CMT1A duplicated region transcript 4), what was measured?
cell gain with vemurafenib: 0.45; lactate per cell with vemurafenib: 1.32

What is on record for SYNPO (synaptopodin)?
cell gain with vemurafenib: 0.68; lactate per cell with vemurafenib: 1.3

With LRP3 (LDL receptor related protein 3), what was measured?
cell gain with vemurafenib: 0.15; lactate per cell with vemurafenib: 2.27

With EPSTI1 (epithelial stromal interaction 1), what was measured?
cell gain with vemurafenib: -0.15 (active); lactate per cell with vemurafenib: 0.47

Only “lactate per cell with vemurafenib” (3 entries from above):
ORAI3 (ORAI calcium release-activated calcium modulator 3)	0.82
TMEM50A (transmembrane protein 50A)	0.56
CDRT4 (CMT1A duplicated region transcript 4)	1.32
